The values below come from PubChem BioAssay AID1347423 (Functional Genomics Laboratory (NCATS/FGL), 2020).

The campaign covered roughly 52,000 sequences. About 210 (0.4%) were called active.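 The calls were made as follows: active = gene whose silencing raises cell survival under the drug, median off-target-corrected z-score across its silencing RNAs 2 or more; inactive = the rest.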 This is one part of the list.

The assay in a line: Resistance to Poly (ADP-Ribose) Polymerase inhibitor: Gene Identification via Genome-wide siRNA Screen. As to conditions: mouse BRCA2 R2336H ES cells, olaparib, CellTiter-Glo viability; stronger effect = higher value. The essentials: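 Mouse BRCA2 R2336H ES cells were reverse-transfected with siRNA (20 nM final), treated at 48 h with 500 nM olaparib, and read by CellTiter-Glo after 72 h. Scores: MAD-based z per siRNA, median per gene, seed off-target correction.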
As for GCCGACAUAGCAUUAUUAATT against Spry2, the z-score was inactive: 0.729.
With CCAAUGUUGGAAAGCCUUUTT against Zfp97 the figure was inactive: -2.06; with GCAUGGACUGACAUCAAGCTT against Mtap6, inactive: -0.943; with GGAAGCAAAAUAAAGAAACTT against Myo1e, inactive: -1.09.
In the case of CAUCAUUGAGAUGUCACACTT against Ypel4 it was inactive: -0.929.
Turning to GCUUCACUCACAUAAUAUCTT against Mrps31, the z-score is inactive: -0.424.
Take GGAGGAAAAGAAAGGUCCUTT against Klc3: the z-score was inactive: -0.308.
With “GGAAGUUCCACCAUACCUCTT against 1700009B20Rik” the figure was inactive: 0.309; with CGACUUGCAUCAGUGGAUCTT against Cpxm2, inactive: -0.278.
In the case of “GGUUUUCUUUUCUUCUGCCTT against 0610011L14Rik” it was inactive: 0.0234; in that of GCAUUCGUCAAAUAUUAUCTT against BC025462, inactive: -0.302.
For the sequence “GGAUGUCUCGGAACUAAGGTT against 1500003D12Rik”, the z-score is inactive: 1.82.
Consider GGAGAAAAUCAAAGAAGCUTT against Gnpda2, for which the z-score is inactive: 2.75.
In the case of “GUUGUCAAGAGAUACAUGUTT against 0610033E06Rik” it was inactive: 0.371; in that of GCAGUGCGAUUGCUUACAGTT against Tube1, inactive: 0.343; in that of “CGUGGUCAUCUGGUAUGAGTT against E430039K05Rik”, inactive: 1.54.
Turning to GGCCUAAACCCUUUCAUCUTT against V1rb6, the z-score is inactive: 0.673.
As for CCUACAGUACCCAAAAUACTT against AW125688, the z-score is inactive: 0.285.
In the case of GGAACAUCAAGGGAAUUAUTT against Zfml it was inactive: -1.53; in that of “GGACAAGUGUCAGAGCUGUTT against 3010026O09Rik”, inactive: -0.339; in that of CCUUGUUCAACAGUCAUGUTT against Ssfa1, inactive: -1.76.
For GGAAGAAAAAGAAAAGAGUTT against Dek, the z-score is inactive: 0.543.
With GCUGCAUCUAAAGCCUUAATT against Olfr661 the figure was inactive: -0.852; with GGACAUCCAUUCAUGCUUUTT against Serpinb1b, inactive: 0.106.
With GCUGAGUCAAAAUGUAAAGTT against Cdc25c the figure was inactive: 1.07; with GGCACUGUAGACAAACUCUTT against Stxbp1, inactive: -1.1; with GCUUCUACCCUUAAUGCCATT against C78212, inactive: 1.52.
Consider “GGCCUGCCGGAGAUAAAGATT against 1700065I17Rik”, for which the z-score is inactive: -0.78.
In the case of GCUGAAUCUGUUGUCCGUGTT against Mpo it was inactive: -0.266; in that of GGAGUUGAAUGGCUCUGGATT against Usp26, inactive: -2.16.
With “GGCGUACAGGCAAAAAGCATT against 1700025B16Rik” the figure was inactive: -0.373; with “CCAUGUCUGUAUCCGCAUUTT against 1700001J03Rik”, inactive: 0.705.
Consider GGCACAUGGAGUGGACAAGTT against Blvrb, for which the z-score was inactive: -0.219.
In the case of “GGAGGAAAAACAGUGCAGATT against 4931400A14Rik” it was inactive: -0.841; in that of GGUAGUGAGUACUUUGGAATT against Amy2, inactive: 1.25.
For the sequence GGUGUUUGAGAUCAGCUGCTT against Trib2, the z-score is inactive: 0.455.
For the sequence GCUUCUAAAAGAGUUGACATT against Mgat4a, the z-score was inactive: -0.62.
As to CGAUUCUGUAUCCAGUUGGTT against Olfr488, the z-score is inactive: -1.04.
Turning to GGAGAAAGUUUUGGAAAAATT against Slc24a5, the z-score was inactive: 0.846.
For GGAUGAAACUUUCAGUUGCTT against Cenph, the z-score is inactive: -2.07.
As for CCACUUAUGGGCCUACAAATT against Nipsnap1, the z-score was inactive: -1.84.
On to CGGCAAGUAUGAUCUGGACTT against Eno3, for which the z-score is inactive: 0.835.
In the case of GCUAGGUGGGCAACUGUAUTT against Edg7 it was inactive: 0.647; in that of GUACACAAGCCCUGUUUACTT against Hoxa6, inactive: -0.381.
In the case of “GGCCGAGUCAAGAAUCUUUTT against 1810036I24Rik” it was inactive: 1.11; in that of GCAUGUUUUCCACACCGGUTT against V1rb4, inactive: 0.47; in that of GCCCAAAUAGAGGAGGCUUTT against Aqp1, inactive: -0.545.
“GCUGCUCGAUUGCUUUCCATT against 4930429B21Rik”: the z-score was inactive: -0.0996.
As for CCCAUCCAUACAAAAAUGATT against Polm, the z-score was inactive: -0.882.
Consider GGUGGUACAGGUCUUCUCCTT against Ap1m1, for which the z-score is inactive: -0.827.
With “GCAUUUUUGAACAAACUUGTT against 4932422E22Rik” the figure was inactive: 1.37; with GGCAUACUGGUUAAUCUCATT against Arl6, inactive: 0.117; with GCAAUGGUCCCACUGUCAGTT against Nrip1, inactive: -1.19.
In the case of GGUUCACACCAAAGAGCAGTT against Zfp535 it was inactive: 0.763.
As to CGUAAUCCUGACUUUUUGATT against Adam9, the z-score is inactive: -0.377.
With CGAGAAUUACAGACACUUGTT against AI326906 the figure was inactive: -0.928; with CCCAACACAAGGUGUGAGGTT against Rabl5, inactive: 0.0466.
For GGCUCAUUUAAAACAAGCATT against Cdh11, the z-score was inactive: 0.0431.
In the case of GGAAAGUAUGGUGGCUUCGTT against Olfr859 it was inactive: -1.89; in that of CCUAGAGUGAGAUAGCCCUTT against Igfbpl1, inactive: 1.54; in that of GGGUACACAACUACCCAAGTT against Sox15, inactive: 0.115.
For the sequence GGAUCGUUUAUGAAUCUGATT against Slitrk6, the z-score was inactive: -0.648.
Turning to “GCCACUGAUGUAAGGCUCATT against D4Bwg0951e”, the z-score was inactive: 0.953.
With GGAGAAAAUUGAAGAGUAUTT against Gtf2e2 the figure was inactive: -0.127.
Regarding GCAGUGAUCAGGUAAUGAATT against Igf2, the z-score was inactive: 1.62.
As to GGAUCGAUCUGACAUCAAATT against Dspg3, the z-score is inactive: 0.576.
